Results from one PubChem assay

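Vaccinia-infected cells with a two-color viral stage reporter; Venus fluorescence read on a plate reader; the cell line is not named here; timing not stated here. The test concentration is not given here. Percent change in Venus reporter signal; lower (more negative) values mean stronger inhibition of that viral stage.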

Values are in %. The controls that fix the scale are not given here. Common to all entries: measured here: Venus reporter, other viral stage. Part of the compounds only, not a random draw; the main read-out is not listed here.

- COc1cccc(S(=O)(=O)N2CCCCN3[C@H](CO)[C@H](c4ccc(C#CCC(C)C)cc4)[C@@H]3C2)c1 | activity change (Venus) -30.61%
- C=CCNC(=O)[C@H]1[C@@H]2C(=O)O[C@@H](c3ccccc3)[C@@H](c3ccccc3)N2[C@@H](c2ccccc2OCCO)[C@]12C(=O)N(C(=O)OCCOC)c1ccccc12 | activity change (Venus) -37%
- COc1ccccc1S(=O)(=O)N(C)C[C@H]1Oc2cc(C#CCC3CCCC3)ccc2S(=O)(=O)N([C@H](C)CO)C[C@H]1C | activity change (Venus) -40.37%
- N#Cc1cccc(-c2ccc(C3[C@@H]4CN(C(=O)Nc5ccc6c(c5)OCO6)C[C@H]3N4)cc2)c1 (stereo partly shown) | activity change (Venus) -95.86%
- COc1ccccc1NC(=O)N1CCCCN2[C@@H](CO)[C@@H](c3ccc(C#Cc4ccccc4)cc3)[C@@H]2C1 | activity change (Venus) -71.45%
- COc1cccc(-c2ccc3c(c2)[C@@H]2[C@@H](CCN2C(=O)c2ccccc2F)[C@H](CO)N3C)c1 | activity change (Venus) -46.46%
- CC(C)NC(=O)Nc1ccc2c(c1)CC(=O)N([C@H](C)CO)C[C@@H](C)[C@@H](CN(C)Cc1ccc(Cl)c(Cl)c1)O2 | activity change (Venus) -37.83%
- COc1ccccc1C#Cc1ccc([C@H]2[C@@H](CO)N3CCCCN(CCC(F)(F)F)C[C@@H]23)cc1 | activity change (Venus) -50.64%
- C[C@H](CO)N1C[C@H](C)[C@H](CN(C)C(=O)Nc2ccccc2F)Oc2cc(-c3ccc(F)cc3)ccc2S1(=O)=O | activity change (Venus) -46.19%
- O=C(C1CCCC1)N1CCCCN2[C@H](CO)[C@H](c3ccc(C#CC4CC4)cc3)[C@H]2C1 | activity change (Venus) -28.87%
- CO[C@H]1CN(C)C(=O)c2ccc(NC(=O)c3ccc(-c4ccccc4)cc3)cc2OC[C@H](C)NC[C@@H]1C | activity change (Venus) -63.37%
- CCC(=O)N1CCCCN2[C@H](C1)[C@@H](c1ccc(C#Cc3ccccc3)cc1)[C@@H]2CO | activity change (Venus) -45.32%
- CC(C)NC(=O)N1[C@H](CO)[C@@H](c2ccc(-c3ccc(F)cc3)cc2)[C@@H]1C#N | activity change (Venus) -40.29%
- CCCc1cn([C@H]2C[C@@H]3O[C@@H](CO)CC[C@@H]3O[C@@H]2CCc2ccc(-c3ccc(OC)cc3)cc2)nn1 | activity change (Venus) -20.96%
- CC(=O)N(C)C[C@@H]1Oc2cc(C#CCC3CCCC3)ccc2S(=O)(=O)N([C@@H](C)CO)C[C@H]1C | activity change (Venus) -46.55%
- C[C@H](CO)N1C[C@H](C)[C@H](CN(C)Cc2ccccc2)OCCCC[C@H](C)Oc2ccc(NC(=O)NC3CCCCC3)cc2C1=O | activity change (Venus) -59.06%
- COc1cccc(S(=O)(=O)N2CCCCN3[C@H](CO)[C@H](c4ccc(-c5ccccc5)cc4)[C@H]3C2)c1 | activity change (Venus) -29.86%
- CC(C)NC(=O)N1CCCCN2[C@H](CO)[C@H](c3ccc(C#Cc4ccccc4)cc3)[C@@H]2C1 | activity change (Venus) -41.42%
- C[C@@H]1CCCCO[C@@H](CN(C)Cc2ccc3c(c2)OCO3)[C@H](C)CN([C@H](C)CO)C(=O)c2cc(NS(=O)(=O)c3ccc(Cl)cc3)ccc2O1 | activity change (Venus) -55.33%
- CCCC#Cc1ccc([C@H]2[C@H]3CN(C(=O)Nc4cccc(F)c4)CC(=O)N3[C@H]2CO)cc1 | activity change (Venus) -45.54%
- COc1cccc(-c2cnc3c(c2)C(=O)N([C@H](C)CO)C[C@H](C)[C@H](CN(C)C(=O)Nc2ccc4c(c2)OCO4)O3)c1 | activity change (Venus) -34.63%
- O=C(C[C@H]1CC[C@H]2[C@@H](COC[C@H](O)CN2S(=O)(=O)c2ccccc2)O1)Nc1ccc(-c2ccccc2)cc1 | activity change (Venus) -34.16%
- Cc1cccc(-c2ccc([C@H]3[C@H]4CN(S(=O)(=O)c5cn(C)cn5)CCCCN4[C@H]3CO)cc2)c1 | activity change (Venus) -65.7%
- C[C@H]1CCCCO[C@@H](CN(C)Cc2ccc(C(F)(F)F)cc2)[C@@H](C)CN([C@@H](C)CO)C(=O)c2cc(NC(=O)CCCN(C)C)ccc2O1 | activity change (Venus) -82.22%
- COc1ccc(S(=O)(=O)N(C)C[C@H]2Oc3cc(-c4ccccc4OC)ccc3S(=O)(=O)N([C@H](C)CO)C[C@H]2C)cc1 | activity change (Venus) -32.59%
- C[C@H]1CN([C@@H](C)CO)S(=O)(=O)c2ccc(/C=C/c3ccccc3)cc2O[C@H]1CN(C)C(=O)c1ccc2c(c1)OCO2 | activity change (Venus) -43.85%
- C[C@@H]1CN([C@@H](C)CO)C(=O)c2cc(-c3ccccc3F)cnc2O[C@H]1CN(C)Cc1ccccc1F | activity change (Venus) -28.58%
- C[C@H](CO)N1C[C@H](C)[C@H](CN(C)Cc2ccc(Oc3ccccc3)cc2)Oc2ccc(NC(=O)Nc3ccc(F)cc3)cc2CC1=O | activity change (Venus) -24.47%
- C[C@@H]1CN([C@H](C)CO)C(=O)c2cccc(NS(=O)(=O)c3cccs3)c2O[C@H]1CN(C)Cc1ccc(C(F)(F)F)cc1 | activity change (Venus) -29.12%
- C[C@@H]1CN([C@@H](C)CO)S(=O)(=O)c2ccc(C3=CCCCC3)cc2O[C@@H]1CN(C)Cc1cccnc1 | activity change (Venus) -53.48%
- CC(C)C#Cc1ccc2c(c1)O[C@@H](CN(C)C(=O)Nc1ccccc1)[C@H](C)CN([C@H](C)CO)S2(=O)=O | activity change (Venus) -39.12%
- C[C@@H]1CN([C@@H](C)CO)S(=O)(=O)c2ccc(C#CC3CCCC3)cc2O[C@H]1CN(C)C | activity change (Venus) -76%
- Cc1ccc(S(=O)(=O)N(C)C[C@H]2Oc3cc(-c4cccc(F)c4)ccc3S(=O)(=O)N([C@H](C)CO)C[C@@H]2C)cc1 | activity change (Venus) -41.03%
- Cc1ccc(S(=O)(=O)Nc2ccc3c(c2)C(=O)N([C@H](C)CO)C[C@@H](C)[C@H](CN(C)C(=O)C2CCCCC2)OCCCC[C@H](C)O3)cc1 | activity change (Venus) -45.34%
- C/C=C/c1ccc([C@H]2[C@@H](CO)N3CCCCN(S(=O)(=O)c4cccs4)C[C@H]23)cc1 | activity change (Venus) -40.46%
- Cc1ccc(S(=O)(=O)Nc2ccc3c(c2)C(=O)N([C@@H](C)CO)C[C@@H](C)[C@@H](CN(C)Cc2ccc4c(c2)OCO4)OCCCC[C@@H](C)O3)cc1 | activity change (Venus) -72.57%

The last 5 entries again:

* C[C@@H]1CN([C@@H](C)CO)S(=O)(=O)c2ccc(C#CC3CCCC3)cc2O[C@H]1CN(C)C : activity change (Venus) -76%
* Cc1ccc(S(=O)(=O)N(C)C[C@H]2Oc3cc(-c4cccc(F)c4)ccc3S(=O)(=O)N([C@H](C)CO)C[C@@H]2C)cc1 : activity change (Venus) -41.03%
* Cc1ccc(S(=O)(=O)Nc2ccc3c(c2)C(=O)N([C@H](C)CO)C[C@@H](C)[C@H](CN(C)C(=O)C2CCCCC2)OCCCC[C@H](C)O3)cc1 : activity change (Venus) -45.34%
* C/C=C/c1ccc([C@H]2[C@@H](CO)N3CCCCN(S(=O)(=O)c4cccs4)C[C@H]23)cc1 : activity change (Venus) -40.46%
* Cc1ccc(S(=O)(=O)Nc2ccc3c(c2)C(=O)N([C@@H](C)CO)C[C@@H](C)[C@@H](CN(C)Cc2ccc4c(c2)OCO4)OCCCC[C@@H](C)O3)cc1 : activity change (Venus) -72.57%

From PubChem BioAssay record AID1053133 (Broad Institute, 2014).